{"sequences": {"note": "Chains of the proteins cited; added tags and fusions are not shown. Chains listed by the source or under a name are the forms on record and can include a tag or linker.", "MdWRKY24 (Malus domestica), one chain, as listed by the source": "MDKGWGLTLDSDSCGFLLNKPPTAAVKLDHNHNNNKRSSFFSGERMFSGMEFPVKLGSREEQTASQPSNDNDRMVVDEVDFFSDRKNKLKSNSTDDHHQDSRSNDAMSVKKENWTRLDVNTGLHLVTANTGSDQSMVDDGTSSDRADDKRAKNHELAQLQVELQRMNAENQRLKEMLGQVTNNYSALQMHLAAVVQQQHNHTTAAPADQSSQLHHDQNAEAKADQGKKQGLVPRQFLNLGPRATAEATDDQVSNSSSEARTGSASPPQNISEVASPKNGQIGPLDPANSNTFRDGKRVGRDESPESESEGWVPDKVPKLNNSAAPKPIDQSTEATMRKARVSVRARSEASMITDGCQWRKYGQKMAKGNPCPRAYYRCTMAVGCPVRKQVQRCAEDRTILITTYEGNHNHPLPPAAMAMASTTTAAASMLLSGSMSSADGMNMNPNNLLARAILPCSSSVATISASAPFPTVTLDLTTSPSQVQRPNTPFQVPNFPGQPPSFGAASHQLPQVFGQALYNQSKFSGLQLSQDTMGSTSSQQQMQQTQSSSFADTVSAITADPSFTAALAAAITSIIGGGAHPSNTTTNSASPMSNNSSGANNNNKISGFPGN"}, "source": "paper PMC11322524", "system": "MdWRKY24 (Malus domestica)", "experiment": "EMSA", "conditions": "LightShift Chemiluminescent EMSA Kit (Thermo Fisher), pH and temperature not stated, recombinant protein, protein details: GST (N-terminal, pGEX-4T-1), label: 5' biotin", "note": "The exact form of at least one protein or probe is not confirmed.", "data": [{"sequence": "ACTTATATTGCTTGACTCTTCTCTTTAA (double strand) [MdSDH1 promoter W-box probe]", "values": [{"measurement": "binding result", "setting": "binding decreased with increasing competitor probe", "value": "binds"}]}, {"sequence": "ATGATTTTTGACCAAACGATGTACG (double strand) [MdGASA1 promoter W-box probe]", "values": [{"measurement": "binding result", "value": "binds"}]}]}
